According to paper PMC4735636:
Results are given in words; binding and its absence hold for the method and conditions named. In cells and extracts the contact can be indirect. For part of these data: A result given as binding can be weak or reduced; the word gives no strength. For part of these data: Where a sequence is shown, tags or fusion partners need not be part of it.

The chains behind the UniProt entries cited, without tags or fusion partners. Where a name states a change or a piece, a line headed by the entry shows the natural chain unless it says otherwise.
UniProt P05205: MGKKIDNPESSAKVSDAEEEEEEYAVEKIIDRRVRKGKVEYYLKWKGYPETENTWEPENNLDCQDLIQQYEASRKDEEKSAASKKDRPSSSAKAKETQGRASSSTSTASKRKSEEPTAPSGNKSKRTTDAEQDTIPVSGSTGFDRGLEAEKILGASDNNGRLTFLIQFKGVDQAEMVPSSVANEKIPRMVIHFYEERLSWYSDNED
UniProt Q7JUZ7: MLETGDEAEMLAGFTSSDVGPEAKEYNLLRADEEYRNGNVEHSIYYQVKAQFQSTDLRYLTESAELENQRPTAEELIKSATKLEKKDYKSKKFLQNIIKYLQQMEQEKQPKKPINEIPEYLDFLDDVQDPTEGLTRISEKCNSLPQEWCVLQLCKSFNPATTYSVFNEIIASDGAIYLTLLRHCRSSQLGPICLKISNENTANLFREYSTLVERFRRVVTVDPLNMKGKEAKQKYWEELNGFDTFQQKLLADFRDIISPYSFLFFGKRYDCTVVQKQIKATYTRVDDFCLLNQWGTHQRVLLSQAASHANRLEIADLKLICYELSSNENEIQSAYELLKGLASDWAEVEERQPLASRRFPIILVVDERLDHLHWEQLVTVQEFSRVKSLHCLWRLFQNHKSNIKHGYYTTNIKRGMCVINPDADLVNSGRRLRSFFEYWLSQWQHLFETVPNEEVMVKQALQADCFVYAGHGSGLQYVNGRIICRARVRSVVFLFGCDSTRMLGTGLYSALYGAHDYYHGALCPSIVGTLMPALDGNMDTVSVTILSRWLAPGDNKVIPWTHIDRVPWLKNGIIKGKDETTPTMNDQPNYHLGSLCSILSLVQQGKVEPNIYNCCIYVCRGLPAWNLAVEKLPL

Tests used:
[1] = biological target: T1, GST-Peo (Drosophila) (UniProt Q7K4V4); assay: pull-down; 2 ug GST fusion protein bound to sepharose beads incubated with extracts of ~50 larval brains expressing HA-Sse, 1 h at 4 °C; 20 mM Hepes KOH, 20 mM NaF, 0.8% NP40; only the target purified
T1 sequence: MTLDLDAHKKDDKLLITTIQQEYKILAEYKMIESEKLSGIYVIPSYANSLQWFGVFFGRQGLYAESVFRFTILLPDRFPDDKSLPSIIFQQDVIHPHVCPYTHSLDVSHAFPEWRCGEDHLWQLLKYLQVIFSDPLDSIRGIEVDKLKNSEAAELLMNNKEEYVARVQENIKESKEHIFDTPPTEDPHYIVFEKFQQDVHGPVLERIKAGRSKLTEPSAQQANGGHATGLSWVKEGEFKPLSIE

[2] = biological target: T2, GST-Ver (Drosophila) (UniProt Q9VTZ2); assay: as above
T2 sequence: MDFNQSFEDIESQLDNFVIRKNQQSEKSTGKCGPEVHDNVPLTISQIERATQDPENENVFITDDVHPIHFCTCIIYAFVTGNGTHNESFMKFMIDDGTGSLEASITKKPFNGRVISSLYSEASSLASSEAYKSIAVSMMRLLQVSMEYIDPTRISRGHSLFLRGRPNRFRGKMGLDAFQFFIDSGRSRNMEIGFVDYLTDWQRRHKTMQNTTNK

[3] = biological target: T3, GST-Moi (Drosophila) (UniProt B7Z0L8); assay: as above
T3 sequence: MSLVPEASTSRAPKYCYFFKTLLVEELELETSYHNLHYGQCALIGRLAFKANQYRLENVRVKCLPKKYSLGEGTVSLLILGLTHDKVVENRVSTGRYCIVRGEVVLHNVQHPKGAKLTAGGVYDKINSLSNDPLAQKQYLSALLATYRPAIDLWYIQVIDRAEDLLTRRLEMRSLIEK

[4] = biological target: T4, GST-HOAP (Drosophila) (UniProt Q95RV2); assay: as above
T4 sequence: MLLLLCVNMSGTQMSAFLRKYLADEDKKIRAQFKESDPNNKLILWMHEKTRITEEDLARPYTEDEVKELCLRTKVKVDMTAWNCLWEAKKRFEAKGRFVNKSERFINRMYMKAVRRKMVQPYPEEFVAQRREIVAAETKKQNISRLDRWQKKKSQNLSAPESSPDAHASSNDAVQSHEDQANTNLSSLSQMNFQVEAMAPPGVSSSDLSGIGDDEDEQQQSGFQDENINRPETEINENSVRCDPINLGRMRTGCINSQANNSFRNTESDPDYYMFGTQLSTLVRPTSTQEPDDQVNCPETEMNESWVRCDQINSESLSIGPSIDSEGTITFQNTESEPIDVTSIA

[5] = biological target: HP1-HA (Drosophila) (UniProt P05205); assay: co-IP; extracts of S2 cells co-expressing tagged Sse and a tagged telomeric protein; anti-FLAG affinity gel or anti-HA affinity matrix, 2 h at 4 °C; lysis buffer 50 mM Tris HCl pH 7.8, 150 mM NaCl, 0.1% NP 40, 1% Triton
[6] = biological target: T5, Moi-HA (Drosophila) (UniProt B7Z0L8); assay: as above
T5 sequence: T3 sequence

[7] = biological target: T6, Ver-FLAG (Drosophila) (UniProt Q9VTZ2); assay: as above
T6 sequence: T2 sequence

[8] = biological target: T7, HOAP-FLAG (Drosophila) (UniProt Q95RV2); assay: as above
T7 sequence: T4 sequence

[9] = biological target: T8, FLAG-HipHop (Drosophila) (UniProt Q7JWP6); assay: as above
T8 sequence: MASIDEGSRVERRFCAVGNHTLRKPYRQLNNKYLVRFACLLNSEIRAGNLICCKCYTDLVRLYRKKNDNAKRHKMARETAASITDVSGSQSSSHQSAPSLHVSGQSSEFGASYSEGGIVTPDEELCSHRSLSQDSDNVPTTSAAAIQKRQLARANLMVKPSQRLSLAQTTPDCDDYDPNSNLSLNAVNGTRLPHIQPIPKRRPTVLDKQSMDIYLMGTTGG

## 6HA-Sse (Drosophila)
[1]
  binding: no binding
[2]
  binding: binds
[3]
  binding: binds
[4]
  binding: binds

## FLAG-Sse (from UniProt Q7JUZ7)
[5]
  binding: binds
[6]
  binding: binds

## HA-Sse (from UniProt Q7JUZ7)
[7]
  binding: binds
[8]
  binding: binds
[9]
  binding: binds
